Taken from: PubChem BioAssay AID1259405 (NCATS, 2018)
In all, the deposit lists about 50,000 reagents; shown is an unselected part. About 4,000 of all reagents (8%) were called active. 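Mouse siRNA library applied to hamster cells; one well for each siRNA.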 Unmarked entries are inactive. Reagents against one gene are numbered here.

- Test: 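Silenced genes that increase secreted GFP made by CHO cells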 (primary screen)
- Cells: Chinese hamster CHO-K1 ovary cells with stable secreted eGFP expression
- Knock-down reagent: single siRNA against mouse genes, 0.8 pmol siRNA per well (2 µl of 400 nM stock)
- Time to read-out: 3 days
- Read-out: 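Percent of the per-plate non-targeting control median for intracellular GFP per well by laser scanning cytometry and for cell viability by ATP luminescence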
- Scale: GFP, % of control: higher = more GFP per well, higher productivity; viability (ATP), % of control: higher = more viable cells (more ATP)
- Active means: 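a knock-down is called active if GFP reaches 120% or more of non-targeting control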

| gene | reagent no. | GFP, % of control | viability (ATP), % of control |
| --- | --- | --- | --- |
| Taf10 | 1 | 115 | 64 |
| Taf10 | 2 | 122 (active) | 125 |
| Taf10 | 3 | 215 (active) | 121 |
| Lrrtm1 | 1 | 60.7 | 43.1 |
| Lrrtm1 | 2 | 76.2 | 79 |
| Lrrtm1 | 3 | 87.7 | 94.7 |
| Vps41 | 1 | 153 (active) | 146 |
| Vps41 | 2 | 98.1 | 75.4 |
| Gda | 1 | 89.9 | 69 |
| Gda | 2 | 95.7 | 91.5 |
| Gda | 3 | 75.9 | 75.4 |
| Or11h6 | 1 | 80.8 | 36.7 |
| Or11h6 | 2 | 92 | 111 |
| Or11h6 | 3 | 54.2 | 57.4 |
| Rps3a1 | 1 | 40.9 | 27.1 |
| Rps3a1 | 2 | 65.4 | 69.1 |
| Rps3a1 | 3 | 37.8 | 23.6 |
| Supt7l | 1 | 101 | 80 |
| Supt7l | 2 | 60.5 | 72.4 |
| Supt7l | 3 | 84.4 | 78.3 |
| Dmpk | 1 | 53.9 | 72.3 |
| Pfdn5 | 1 | 112 | 119 |
| Pfdn5 | 2 | 127 (active) | 103 |
| Mep1b | 1 | 84 | 91.6 |
| Mep1b | 2 | 52.9 | 55.3 |
| Mep1b | 3 | 62.2 | 103 |
| Zer1 | 1 | 85.9 | 108 |
| Zer1 | 2 | 85.7 | 88.2 |
| Zer1 | 3 | 142 (active) | 119 |
| Krt74 | 1 | 49.5 | 57 |
| Krt74 | 2 | 72.5 | 77.9 |
| Krt74 | 3 | 83.6 | 46 |
| Zfp933 | 1 | 105 | 94.9 |
| Zfp933 | 2 | 86.4 | 104 |
| Zfp933 | 3 | 102 | 83.5 |
| Itpka | 1 | 107 | 69.5 |
| Tamalin | 1 | 60.6 | 74.7 |
| Tamalin | 2 | 61.7 | 57.5 |
| Tamalin | 3 | 65.4 | 67.2 |
| Tex29 | 1 | 61.5 | 80.5 |
| Tex29 | 2 | 79.1 | 86.5 |
| Tex29 | 3 | 61.5 | 76.7 |
| Cdh1 | 1 | 69.8 | 71.2 |
| Cdh1 | 2 | 123 (active) | 83 |
| Cdh1 | 3 | 71.3 | 47.7 |
| Crip1 | 1 | 120 (active) | 38.9 |
| Crip1 | 2 | 57.4 | 50.7 |
| Rpl7 | 1 | 38.3 | 33.8 |
| Rpl7 | 2 | 83.6 | 69.2 |
| Rpl7 | 3 | 38.3 | 27.4 |
| Rpl13a | 1 | 40.7 | 29.1 |
| Rpl13a | 2 | 119 | 34.6 |
| Rpl13a | 3 | 87 | 66.8 |
| Tas2r129 | 1 | 58.8 | 64.9 |
| Tas2r129 | 2 | 140 (active) | 95.1 |
| Tas2r129 | 3 | 61.2 | 86.2 |
| Dido1 | 1 | 72.8 | 89.7 |
| Dido1 | 2 | 44.1 | 52.2 |
| Dido1 | 3 | 93.3 | 84.9 |
| Pax8 | 1 | 99.8 | 83.1 |
| Pax8 | 2 | 57.6 | 75.7 |
| Scn1a | 1 | 57.9 | 74.5 |
| Scn1a | 2 | 4.5 | 4.91 |
| Scn1a | 3 | 80.8 | 50.5 |
| Sox4 | 1 | 104 | 68 |
| Sox4 | 2 | 114 | 69.4 |
| Sox4 | 3 | 69.1 | 88.4 |
| Slc11a1 | 1 | 90.9 | 74.4 |
| Slc11a1 | 2 | 36.8 | 39.4 |
| Slc11a1 | 3 | 76.7 | 65.6 |
| Nme7 | 1 | 73.3 | 62.1 |
| Zfp90 | 1 | 49.8 | 55 |
| Zfp90 | 2 | 102 | 106 |
| Zfp90 | 3 | 85.3 | 66.6 |
| Klf2 | 1 | 88.4 | 99 |
| Klf2 | 2 | 89.9 | 76.3 |
| Klf2 | 3 | 71.3 | 55.9 |
| Pde4b | 1 | 45.4 | 37.8 |
| Pde4b | 2 | 50.9 | 43 |
| Pde4b | 3 | 84.8 | 91.7 |
| Gm4884 | 1 | 61.6 | 78.2 |
| Gm4884 | 2 | 90.5 | 78.1 |
| Gm4884 | 3 | 66.6 | 75.1 |
| Dicer1 | 1 | 55.8 | 52 |
| Dicer1 | 2 | 86.7 | 82.8 |
| Dicer1 | 3 | 72 | 73.7 |
| Ndufa3 | 1 | 71 | 69.5 |
| Ndufa3 | 2 | 49.6 | 43.9 |
| Kctd15 | 1 | 76.5 | 70.2 |
| Kctd15 | 2 | 75.8 | 71.9 |
| Kctd15 | 3 | 72 | 64.8 |
| Gnb3 | 1 | 129 (active) | 99.8 |
| Gnb3 | 2 | 73.2 | 65 |
| Gnb3 | 3 | 75.6 | 38.1 |
| Crem | 1 | 54.5 | 57.9 |
| Crem | 2 | 55 | 49.7 |
| Crem | 3 | 132 (active) | 111 |
| Gfm2 | 1 | 0.177 | 10.1 |
| Gfm2 | 2 | 115 | 111 |
| Gfm2 | 3 | 131 (active) | 110 |
| Stk32c | 1 | 75.7 | 65.7 |
| Stk32c | 2 | 92.1 | 50.6 |
| Stk32c | 3 | 84.4 | 62.6 |
| Tnfaip8l1 | 1 | 70.8 | 74.2 |
| Tnfaip8l1 | 2 | 35.5 | 24.8 |
| Tnfaip8l1 | 3 | 86.6 | 60.1 |
| Slc6a2 | 1 | 75.4 | 82.2 |
| Slc6a2 | 2 | 95.4 | 70.9 |
| Slc6a2 | 3 | 91.8 | 93.7 |
